# Reference: PubChem BioAssay AID2685 (National Center for Advancing Translational Sciences (NCATS), 2010)
# Some of the results follow. Shown are side measurements of this screen, not its main read-out; they come without a call. The list favours compounds with an active or inconclusive main result. Potencies come from curve fits of mixed quality, noted in brackets.
# Assay: qHTS Assay for Lipid Storage Modulators in Drosophila S3 Cells;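 on cell number change: cells counted by Cell Tracker Red CMTPX staining in the red channel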
# Settings: BODIPY lipid droplet fluorescence, 18-24 h; for cell number change: measured here: cell count max response, cells fed with added oleic acid
# How it was run: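 Drosophila S3 cells got compounds at several concentrations plus oleic acid (400 uM solution). Laser-scanning cytometry with 488 nm excitation read lipid droplets at 500-530 nm and cells at 575-640 nm. Percent activity was relative to 20 uM Triacsin C.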
# [1] = measured here: cell number channel AC50, cells fed with added oleic acid
# [2] = measured here: lipid fluorescence (Fed channel) AC50, cells fed with added oleic acid
Compound,AC50 [1],cell number change [%],AC50 [2]
COc1ccc2[nH]c(C)c(C(=O)CN3CCN(C/C=C/c4ccccc4)CC3)c2c1,"6.51 µM [rising, single point]",–,–
N#Cc1cccc(S(=O)(=O)NCc2nnc3ccccn23)c1,"0.82 µM [falling, full curve]",16,"0.731 µM [falling, full curve]"
CN(C(=O)CC1C(=O)NCCN1Cc1ccc2ccccc2c1)C1CCOCC1 (stereo unspecified),–,-13.5,–
CCC1CC2(C)NC(=O)c3c(sc4c3CC(C)(C)OC4)N2C1=O (stereo unspecified),–,-1.53,"0.731 µM [falling, single point]"
CCN1CCN(c2nc3c(c(=O)[nH]c(=O)n3C)n2Cc2ccccc2F)CC1,–,19.6,–
Cc1sc(NC(=O)c2ccco2)c(C(c2cccnc2)N2CCC(C)CC2)c1C (stereo unspecified),"0.366 µM [rising, full curve]",55.5,"0.291 µM [rising, full curve]"
COc1ccc(CCn2c(=N)c(C(=O)NC3CCCCC3)cc3c(=O)n4ccccc4nc32)cc1,–,1.42,"29.1 µM [rising, single point]"
COn1c2c(c3c4no[n+]([O-])c4ccc31)CCCC2,"6.51 µM [falling, single point]",87.3,–
Cc1ccc(N2C(=O)CSC2c2cccs2)cc1 (stereo unspecified),–,-7.57,"2.31 µM [rising, full curve, poor fit]"
C[C@]12C(=O)N(c3ccc(F)cc3)C(=O)N1[C@@H]1c3ccccc3OC[C@@H]1[C@H]2c1ccccc1,–,3.89,"29.1 µM [rising, single point]"
CC(=O)N1CCOc2ccc(S(=O)(=O)Nc3cccc(C)c3)cc21,–,8.96,–
CC(C)NC(=O)COC(=O)c1cc(Br)ccc1Cl,–,16,"5.8 µM [rising, full curve, poor fit]"
CC(C)(C)NS(=O)(=O)c1ccc(OCC(=O)NCC2CCCO2)cc1 (stereo unspecified),–,-8.03,–
COc1cccc(NC(=O)c2cc([N+](=O)[O-])ccc2N2CCN(C)CC2)c1,–,-25.4,"29.1 µM [falling, single point]"
CC1CCCC(NC(=O)CN2C(=O)NC(c3ccccc3)(c3ccccc3)C2=O)C1C (stereo unspecified),"14.6 µM [rising, partial curve]",53.9,–
CC1CC(C)(C)NC(=S)N1CCC(=O)NCCc1ccc(Cl)cc1 (stereo unspecified),"18.4 µM [rising, single point]",108,–
O=C(c1ccccc1)c1c(O)nc(-c2ccccc2)n(-c2ccccc2)c1=O,"29.1 µM [falling, single point]",-33.3,"11.6 µM [rising, partial curve]"
N#Cc1ccc(OCC(=O)N2CCCC2=O)cc1,–,-6.49,–
CS(=O)(=O)N1CCN(c2ccc([N+](=O)[O-])c(NCc3cccnc3)c2)CC1,–,–,"29.1 µM [falling, partial curve]"
Cc1[nH]c2ccccc2c1C(=O)COC(=O)c1c(-c2c(F)cccc2Cl)noc1C,–,-20.7,"18.4 µM [falling, single point]"

Compound,AC50 [1],cell number change [%],AC50 [2]
c1ccc2nc(N3CCOCC3)cnc2c1,"13 µM [rising, partial curve]",64.2,–
Brc1cccc(-c2nnc3sc(CN4CCCCC4)cn23)c1,–,24,"2.06 µM [rising, single point]"
COc1ccc(/C=C\C(=O)CC(O)(c2ccccc2)C(F)(F)F)cc1 (stereo unspecified),–,-16.4,"3.26 µM [rising, single point]"
O=C(c1noc2c1CCCC2)N1CCN(c2ccccc2)CC1,–,1.76,"29.1 µM [rising, single point]"
CN1CC[n+]2c(CN3C(=O)c4ccccc4C3=O)csc21,–,-13.3,"0.731 µM [falling, full curve]"
CC(=O)N1CCN(c2nc3ccc(Br)cc3s2)CC1,–,13.8,"1.03 µM [rising, full curve]"
C=CCOC(=O)C1=C(C)NC(SCC(=O)N(CC)CC)=C(C#N)C1c1ccco1 (stereo unspecified),"16.4 µM [rising, partial curve]",299,"5.17 µM [rising, partial curve]"
Cc1ccc(C)c(N2CCN(S(=O)(=O)c3ccc(-c4ccc(=O)[nH]n4)o3)CC2)c1,–,-14.5,–
O=C(CCl)N(c1ccccc1)c1ccccc1,–,-27.3,"18.4 µM [falling, single point]"
CC(C)OC(=O)c1cc(Cl)c(=O)n(Cc2ccc(Cl)cc2Cl)c1,–,-8.38,"2.91 µM [rising, partial curve]"
Cn1c(/C(C#N)=C(\O)c2ccc([N+](=O)[O-])cc2)nc2ccccc21,–,8.8,"20.6 µM [falling, single point]"
COC(=O)c1cc(C(=O)N2CCN(c3ccccc3OC)CC2)cc([N+](=O)[O-])c1,–,8.14,"0.092 µM [falling, full curve, poor fit]"
CN(C)S(=O)(=O)N1CCN(C(=O)c2ccccc2)CC1,–,–,"0.461 µM [falling, full curve]"
Nc1ccc2c3c(cccc13)C(=O)N(c1ccccc1)C2=O,"20.6 µM [falling, single point]",-64.9,"11.6 µM [falling, partial curve]"
Cc1ccc(SCCNC(=O)C(C)C)cc1,–,6.95,"3.66 µM [falling, full curve, poor fit]"
CCOC(=O)C1=C(CNCc2ccc(C)cc2)NC(=O)NC1c1cc(C)ccc1C (stereo unspecified),–,–,"4.11 µM [rising, single point]"
CC1(C)CC(=O)c2sc(NC(=O)c3ccccc3)nc2C1,–,-4.46,–
O=C(Cn1nc(-c2ccccc2)c2ccccc2c1=O)Nc1ccc2c(c1)nc1n2CCOC1,–,-25.7,"0.116 µM [rising, full curve, poor fit]"
Oc1ccccc1/C=N/n1cnn(Cc2ccccc2Cl)c1=S,"0.0231 µM [rising, full curve, poor fit]",4.16,"0.103 µM [rising, partial curve, poor fit]"
CN(C)S(=O)(=O)c1ccc(C(=O)N2CCOCC2)cc1,"0.13 µM [falling, full curve, poor fit]",-31.2,"0.116 µM [falling, full curve, poor fit]"

# Quoted from the listing for reference:
Compound,AC50 [1],cell number change [%],AC50 [2]
O=C(c1noc2c1CCCC2)N1CCN(c2ccccc2)CC1,–,1.76,"29.1 µM [rising, single point]"
CN1CC[n+]2c(CN3C(=O)c4ccccc4C3=O)csc21,–,-13.3,"0.731 µM [falling, full curve]"
CC(=O)N1CCN(c2nc3ccc(Br)cc3s2)CC1,–,13.8,"1.03 µM [rising, full curve]"
C=CCOC(=O)C1=C(C)NC(SCC(=O)N(CC)CC)=C(C#N)C1c1ccco1 (stereo unspecified),"16.4 µM [rising, partial curve]",299,"5.17 µM [rising, partial curve]"
Cc1ccc(C)c(N2CCN(S(=O)(=O)c3ccc(-c4ccc(=O)[nH]n4)o3)CC2)c1,–,-14.5,–
O=C(CCl)N(c1ccccc1)c1ccccc1,–,-27.3,"18.4 µM [falling, single point]"
CC(C)OC(=O)c1cc(Cl)c(=O)n(Cc2ccc(Cl)cc2Cl)c1,–,-8.38,"2.91 µM [rising, partial curve]"
Cn1c(/C(C#N)=C(\O)c2ccc([N+](=O)[O-])cc2)nc2ccccc21,–,8.8,"20.6 µM [falling, single point]"
COC(=O)c1cc(C(=O)N2CCN(c3ccccc3OC)CC2)cc([N+](=O)[O-])c1,–,8.14,"0.092 µM [falling, full curve, poor fit]"
CN(C)S(=O)(=O)N1CCN(C(=O)c2ccccc2)CC1,–,–,"0.461 µM [falling, full curve]"
